Data reported in PubChem BioAssay AID1347426 (Functional Genomics Laboratory (NCATS/FGL), 2020).
In all, about 31,000 sequences went through this assay and about 1,400 (4.5%) were called active.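 Rule for the calls: active = median seed-adjusted z-score above 1 or below -1; inactive = the rest.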 The list shows a part of the results.

Test: Novel Modifiers of Survival Motor Neuron (SMN) Protein: Gene Identification via Genome-wide siRNA Screen;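 note: luminescence tracks full-length SMN protein made from the SMN2 reporter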
Settings: HEK293T SMN2-luciferase reporter, siRNA knockdown, 72 h; actives lie on both sides
Outline: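 Luciferase signal, proportional to full-length SMN made from an SMN2 cDNA reporter in stable HEK293T cells, was read 72 h after siRNA reverse transfection. Values were expressed as MAD scores after non-targeting-control normalization and log10 conversion; seed analysis flagged off-targets.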

| Sequence | median seed-adjusted z-score |
| --- | --- |
| GCACUAACCUCUUUCGACATT against ZNF530 | inactive: 0.0381 |
| CCUCCACAACAGCUACUAUTT against CCNG2 | inactive: -0.764 |
| GACUAUAAUGUUAAAGCGATT against IFIT1L | inactive: 0.166 |
| GGAAUUCUUUGGGAGUGGATT against DNAJB2 | inactive: 0 |
| CGCUUACUACCUUCAGUAUTT against SOD2 | inactive: -0.558 |
| CGAAAUACGUGGAACUCAUTT against ACE | inactive: 0.0874 |
| CGAUCGAUGUCUUACAGCATT against ZDHHC5 | inactive: -0.307 |
| CCCUGAGAAUGAGAAUGCATT against PLXNA1 | inactive: 0 |
| GGCACUUUAUGCUUCAGAUTT against PDE7B | inactive: 0.0616 |
| CCAGCAAGGAUGCAGCUAATT against CELSR3 | inactive: 0 |
| CCAUCUCUUUGGUAGUACUTT against TBC1D23 | inactive: 0.0932 |
| GCCCAUAUGUUGUAAAGUATT against STK3 | inactive: 0.108 |
| GCAACAACCAGUGUAUUCATT against TRIM3 | inactive: -0.215 |
| CCAGGUGUCAAGAAGCCUATT against CST2 | inactive: -0.411 |
| GAGUCCAAUUUGUCCAGCUTT against SIRT5 | inactive: 0.39 |
| CAGAUGCACGAGAAAUCCATT against APLNR | inactive: 0.794 |
| AGAAGGUCAUCAAUACGGATT against SLC34A1 | inactive: 0.139 |
| CGACCUUGCAGAUUUUGAATT against FGL1 | inactive: -0.259 |
| CGAAAUGAUCGAAAACUGUTT against GPR37 | inactive: -0.0447 |
| CUACAACUGUCACCGUUAATT against DSC1 | inactive: -0.151 |
| GAGUUAUCAUAGGUCAGAATT against HSD17B4 | inactive: 0 |
| GAAAUGGACCAGACACUAATT against POU2F2 | inactive: 0.163 |
| CCUAUUCUGGAGGCAAUAATT against USP38 | inactive: 0.216 |
| GGAAAUGCGUGAAGCUUUUTT against CHIA | inactive: 0.479 |
| GCAAGGUCCACACCCAAAATT against NPFF | inactive: -0.631 |
| GCUCGGUCUGGUGAACUAATT against KLF3 | inactive: 0.628 |
| GGAUACUCUUCCUAUUCAATT against OMA1 | inactive: 0 |
| ACCCUUUGCUCAAUAAACATT against ZNF580 | inactive: 0.437 |
| GACAAUCAAUUCACAUUUUTT against PKIG | inactive: 0.0916 |
| GGAUUCAUCUGGGAUAAAATT against F8 | inactive: -0.0992 |

Retrieved one by one from above (two):

| Sequence | median seed-adjusted z-score |
| --- | --- |
| ACCCUUUGCUCAAUAAACATT against ZNF580 | inactive: 0.437 |
| GCAAGGUCCACACCCAAAATT against NPFF | inactive: -0.631 |
